# From PubChem BioAssay AID2685 (National Center for Advancing Translational Sciences (NCATS), 2010)
# The list shows a part of the results. Shown are side measurements of this screen, not its main read-out; they come without a call. The list favours compounds with an active or inconclusive main result. Potencies come from curve fits of mixed quality, noted in brackets.
# Assay: qHTS Assay for Lipid Storage Modulators in Drosophila S3 Cells;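 as to cell number change: cells counted by Cell Tracker Red CMTPX staining in the red channel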
# Settings: BODIPY lipid droplet fluorescence, 18-24 h; for cell number change: measured here: cell count max response, cells fed with added oleic acid
# Procedure, shortened: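 Drosophila S3 cells got compounds at several concentrations plus oleic acid (400 uM solution). Laser-scanning cytometry with 488 nm excitation read lipid droplets at 500-530 nm and cells at 575-640 nm. Percent activity was relative to 20 uM Triacsin C.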
# [1] = measured here: lipid fluorescence (Fed channel) AC50, cells fed with added oleic acid
# [2] = measured here: cell number channel AC50, cells fed with added oleic acid
SMILES,cell number change [%],AC50 [1],AC50 [2]
O=C(NC1CCCCC1)c1ccc(S(=O)(=O)c2ccccc2Cl)c([N+](=O)[O-])c1,0.0856,"20.6 µM [falling, single point]",–
Cc1ccc(C)c(OC(=O)c2cccc(S(=O)(=O)N3CCN(C)CC3)c2)c1,13.6,"2.31 µM [rising, partial curve]","5.8 µM [rising, single point]"
CCC(CC)C(=O)N(CCc1ccc(OC)cc1)Cc1nc2ccccc2c(=O)[nH]1,74.7,"3.66 µM [rising, single point]","16.4 µM [rising, partial curve]"
CC(C(=O)N1CCOCC1)N1C(=O)C2C3CC(C(Br)C3Br)C2C1=O (stereo not given),27.2,"18.4 µM [rising, single point]",–
O=C(Nc1nc2ccccc2[nH]1)C12CC3CC(CC(C3)C1)C2,–,"7.31 µM [falling, single point]",–
C=C(C)C(C)(C#CCN1CCCC1)OC(C)=O (stereo not given),-101,"20.6 µM [falling, partial curve]","11.6 µM [falling, partial curve]"
CCOc1ccccc1-n1c(SCC(=O)NC)nnc1-c1ccco1,27.2,"0.13 µM [falling, full curve, poor fit]",–
Cc1cc(Nc2ccccc2)n(CCO)n1,37.6,–,"8.2 µM [rising, partial curve]"
COc1ccc(CN2CC(C(=O)NCCCOC(C)C)CC2=O)cc1 (stereo not given),-51.3,"10.3 µM [falling, single point]","0.731 µM [falling, full curve]"
COc1ccc(C(CC(=O)O)N2Cc3ccccc3C2=O)cc1OC (stereo not given),-33.8,"1.16 µM [falling, full curve]","18.4 µM [falling, single point]"
Clc1ccccc1-c1ccc2ncnc(NCc3cccnc3)c2c1,13.6,–,–
CCOc1cc(C=C(C(=O)OC)C(=O)OC)ccc1OCc1ccc([N+](=O)[O-])cc1,52,"5.8 µM [falling, single point]","29.1 µM [rising, single point]"
Cc1cccc(NC(=O)C(C)N2C(=O)C3C4CC(C(Br)C4Br)C3C2=O)c1 (stereo not given),-76.9,"0.366 µM [falling, full curve]","4.11 µM [falling, full curve]"
Cc1nccc2[nH]c(=O)c(C(=O)NCCCN(C)C3CCCCC3)cc12,-8.65,"0.231 µM [falling, full curve, poor fit]",–
Cc1csc(NC(=O)CCC(=O)N(CC(=O)NC2CCCCC2)c2ccccc2)n1,11.7,"29.1 µM [rising, single point]",–
O=C(OCc1ccc(Br)cc1)c1cccnc1,-7.72,"2.06 µM [falling, full curve, poor fit]",–
O=C1C=C(Nc2ccccc2)c2ccccc2C1=O,-32.9,"18.4 µM [falling, single point]","18.4 µM [falling, single point]"
O=C(Cc1c(F)cccc1Cl)NCc1cccnc1,1.17,"29.1 µM [falling, single point]",–
O=C(CN1C(=O)CCC1=O)Nc1nc(-c2cccs2)cs1,-3.6,"0.731 µM [falling, full curve]",–
Cc1cc(C)n2c(SCc3ccc(Cl)cc3Cl)nnc2n1,-60.4,"23.1 µM [falling, single point]","23.1 µM [falling, single point]"
Cc1cccn2c(=O)nc(SCC(=O)NCc3ccc(F)cc3)nc12,40.7,–,"9.2 µM [rising, partial curve, poor fit]"

# 16 of the compounds above, as tab-separated lines:
SMILES	cell number change [%]	AC50 [1]	AC50 [2]
Cc1ccc(C)c(OC(=O)c2cccc(S(=O)(=O)N3CCN(C)CC3)c2)c1	13.6	2.31 µM [rising, partial curve]	5.8 µM [rising, single point]
CCC(CC)C(=O)N(CCc1ccc(OC)cc1)Cc1nc2ccccc2c(=O)[nH]1	74.7	3.66 µM [rising, single point]	16.4 µM [rising, partial curve]
CC(C(=O)N1CCOCC1)N1C(=O)C2C3CC(C(Br)C3Br)C2C1=O (stereo not given)	27.2	18.4 µM [rising, single point]	–
O=C(Nc1nc2ccccc2[nH]1)C12CC3CC(CC(C3)C1)C2	–	7.31 µM [falling, single point]	–
C=C(C)C(C)(C#CCN1CCCC1)OC(C)=O (stereo not given)	-101	20.6 µM [falling, partial curve]	11.6 µM [falling, partial curve]
CCOc1ccccc1-n1c(SCC(=O)NC)nnc1-c1ccco1	27.2	0.13 µM [falling, full curve, poor fit]	–
Cc1cc(Nc2ccccc2)n(CCO)n1	37.6	–	8.2 µM [rising, partial curve]
COc1ccc(CN2CC(C(=O)NCCCOC(C)C)CC2=O)cc1 (stereo not given)	-51.3	10.3 µM [falling, single point]	0.731 µM [falling, full curve]
COc1ccc(C(CC(=O)O)N2Cc3ccccc3C2=O)cc1OC (stereo not given)	-33.8	1.16 µM [falling, full curve]	18.4 µM [falling, single point]
Clc1ccccc1-c1ccc2ncnc(NCc3cccnc3)c2c1	13.6	–	–
CCOc1cc(C=C(C(=O)OC)C(=O)OC)ccc1OCc1ccc([N+](=O)[O-])cc1	52	5.8 µM [falling, single point]	29.1 µM [rising, single point]
Cc1cccc(NC(=O)C(C)N2C(=O)C3C4CC(C(Br)C4Br)C3C2=O)c1 (stereo not given)	-76.9	0.366 µM [falling, full curve]	4.11 µM [falling, full curve]
Cc1nccc2[nH]c(=O)c(C(=O)NCCCN(C)C3CCCCC3)cc12	-8.65	0.231 µM [falling, full curve, poor fit]	–
Cc1csc(NC(=O)CCC(=O)N(CC(=O)NC2CCCCC2)c2ccccc2)n1	11.7	29.1 µM [rising, single point]	–
O=C(OCc1ccc(Br)cc1)c1cccnc1	-7.72	2.06 µM [falling, full curve, poor fit]	–
O=C1C=C(Nc2ccccc2)c2ccccc2C1=O	-32.9	18.4 µM [falling, single point]	18.4 µM [falling, single point]

# Further records follow:

SMILES,cell number change [%],AC50 [1],AC50 [2]
CC(=O)Nc1ccc(S(=O)(=O)N(Cc2ccco2)Cc2cc3ccccc3[nH]c2=O)cc1,-21.8,"13 µM [falling, single point]",–
Cc1ccc(NC(=O)NCC2CCN(Cc3cc(C)ccc3Cl)CC2)c(C)c1,27,–,–
C=CCNC(=S)Nc1ccc(C)c(S(=O)(=O)N2CCCCC2)c1,-21.3,"0.00411 µM [rising, full curve, poor fit]",–
c1cn(C23CC4CC(CC(C4)C2)C3)cn1,–,"0.651 µM [falling, single point]",–
C=CCOc1c(Cl)cc(/C=N/O)cc1OC,-8.23,–,–
Cc1ccc2ccc3ccc(C)nc3c2n1,-15.3,"1.84 µM [falling, partial curve, poor fit]",–
Cc1onc(-c2c(Cl)cccc2Cl)c1C(=O)NNc1ccccc1,-31.1,"29.1 µM [falling, single point]","18.4 µM [falling, single point]"
COc1ccc(NC(=O)c2ccc(=O)[nH]c2)cc1S(=O)(=O)N1CCOCC1,-4.27,–,–
O=C(Nc1ccncc1)c1ccc(C(=O)Nc2ccncc2)cc1,22.5,–,–
COc1ccc(C(C)(C)C)cc1NC(=O)C1C2C=CC(C2)C1C(=O)O (stereo not given),-24.5,–,"4.11 µM [falling, full curve, poor fit]"
COc1ccccc1NC(=O)C(=O)N/N=C/c1ccc([N+](=O)[O-])s1,24.3,"18.4 µM [rising, partial curve, poor fit]",–
Cc1ccc(C(=O)COC(=O)c2cc(C)no2)c(C)c1,14,–,–
O=C(N1CCOCC1)N1CCN(C(=O)N(c2ccccc2)c2ccccc2)CC1,-1.61,"29.1 µM [falling, single point]",–
O=C(Cc1cccs1)Nc1ccc(-c2nnn(CC(=O)N3CCOCC3)n2)cc1,-11.5,"18.4 µM [rising, single point]",–
CN1CCc2c(sc(N)c2C(=O)O)C1,16,–,–
CCOc1ccccc1N1CCN(C(=O)c2ccc(Cl)c(S(=O)(=O)N3CCCCC3)c2)CC1,-41.3,–,"0.82 µM [falling, full curve, poor fit]"
Cc1cc(SCCC(=O)O)nc2c(C)cccc12,–,–,"1.84 µM [falling, partial curve]"
COC(=O)CSC1=C(C#N)C(c2cccc(OC)c2)CC(=O)N1 (stereo not given),-25.4,"32.6 µM [falling, single point]",–
CC1CCN(C(=O)c2cc(-c3ccco3)on2)CC1,12.9,"1.16 µM [falling, single point]",–
Cc1ccc(CN2CCC(Oc3ccc(C(=O)NCc4ccccn4)cc3)CC2)o1,-8.29,"16.4 µM [falling, single point]",–
O=C(O)CCC(=O)Nc1ccc(F)cc1,-27.6,"29.1 µM [falling, single point]","3.26 µM [falling, full curve, poor fit]"

SMILES,cell number change [%],AC50 [1],AC50 [2]
O=C(COc1ccc(F)cc1)NCCCn1ccnc1,–,"3.26 µM [falling, partial curve]",–
CC(C)(C)OC(=O)N/N=C\C=C\c1ccc2c(c1)OCO2,5.93,"1.46 µM [rising, full curve]",–
COc1cccc(-c2sc3ccc(OC)cc3c2C#CCCO)c1,-29.7,"23.1 µM [falling, single point]",–
COCCOC(=O)C1=C(C)NC(=O)NC1c1cn(-c2ccccc2)nc1-c1cccs1 (stereo not given),35.2,–,"29.1 µM [rising, single point]"
COCCn1nnnc1C(c1cc2cc(C)cc(C)c2[nH]c1=O)N1CCN(c2ccccc2F)CC1 (stereo not given),–,–,"2.59 µM [rising, partial curve]"
COc1ccc(-c2cc(C(=O)NCc3ccccc3)no2)cc1OC,-45.8,"25.9 µM [falling, partial curve]","13 µM [falling, partial curve]"
O=C(Cn1nnc(-c2ccccc2)n1)NCc1cccs1,-12.7,"20.6 µM [falling, single point]",–
COc1ccc(CCN(C)C(=O)C2CCCN(Cc3ccc(OC)c(OC)c3)C2)cc1OC (stereo not given),24.2,"4.11 µM [rising, single point]",–
O=C(COC(=O)c1ccc([N+](=O)[O-])cc1)Nc1ccc(Cl)cn1,-12,–,–
CCOc1ccc(NC(=O)N2CCC(n3c(=O)[nH]c4ccccc43)CC2)cc1,7.58,"14.6 µM [rising, single point]",–
COc1ccc(S(=O)(=O)CCC(=O)N(C)c2ccc(OC)cc2OC)cc1,-4.79,–,–
CC(=O)OCCn1c2nc(=O)[nH]c(=O)c-2nc2cc(C)c(C)cc21,-42.5,"6.51 µM [falling, single point]","0.103 µM [falling, full curve, poor fit]"
N#C/C(=N\Nc1cccc(F)c1)C(=N)N1CCCCCC1,-41,–,–
CCN1CCN(C(=O)CCc2nnc3ccc(N4CCC5(CC4)OCCO5)nn23)CC1,26.3,–,–
Cn1ccnc1C(O)c1ccco1 (stereo not given),-150,"4.61 µM [falling, single point]","23.1 µM [falling, partial curve]"
CCOC(=O)c1cccc(C(=O)Oc2ccccc2)n1,-0.223,"6.51 µM [falling, single point]","0.259 µM [falling, full curve, poor fit]"
CCOc1ccccc1N,-3.16,–,–
CC(C)(C)n1nc2c(c1NC(=O)c1cccs1)CS(=O)C2 (stereo not given),7.05,"0.116 µM [rising, partial curve, poor fit]","0.103 µM [rising, full curve, poor fit]"
CCn1c(-c2cc(-c3cc(C)ccc3C)nc3ccccc23)n[nH]c1=S,–,"2.06 µM [rising, partial curve]",–
